Results from paper PMC4895231.
No constants are given. Whether binding was seen depends on the method and setting. Binding seen in cells or lysates may run through a third protein. Some results given as binding are weak or reduced against the parent protein; the word gives no strength.

Protein sequences, listed by entry. Tags and fused reporters are not part of them. Residues count along the entry.
UniProt P61073: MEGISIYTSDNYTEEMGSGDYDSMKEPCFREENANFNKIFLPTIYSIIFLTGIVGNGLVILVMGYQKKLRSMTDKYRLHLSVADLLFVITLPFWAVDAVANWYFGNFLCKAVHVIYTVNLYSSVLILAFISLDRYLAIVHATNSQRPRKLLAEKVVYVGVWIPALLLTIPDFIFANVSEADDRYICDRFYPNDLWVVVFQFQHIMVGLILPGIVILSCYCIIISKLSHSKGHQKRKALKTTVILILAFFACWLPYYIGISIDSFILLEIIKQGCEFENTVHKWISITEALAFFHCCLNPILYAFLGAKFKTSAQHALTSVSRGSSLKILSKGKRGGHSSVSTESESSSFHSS
UniProt P15941, residues 24-1255: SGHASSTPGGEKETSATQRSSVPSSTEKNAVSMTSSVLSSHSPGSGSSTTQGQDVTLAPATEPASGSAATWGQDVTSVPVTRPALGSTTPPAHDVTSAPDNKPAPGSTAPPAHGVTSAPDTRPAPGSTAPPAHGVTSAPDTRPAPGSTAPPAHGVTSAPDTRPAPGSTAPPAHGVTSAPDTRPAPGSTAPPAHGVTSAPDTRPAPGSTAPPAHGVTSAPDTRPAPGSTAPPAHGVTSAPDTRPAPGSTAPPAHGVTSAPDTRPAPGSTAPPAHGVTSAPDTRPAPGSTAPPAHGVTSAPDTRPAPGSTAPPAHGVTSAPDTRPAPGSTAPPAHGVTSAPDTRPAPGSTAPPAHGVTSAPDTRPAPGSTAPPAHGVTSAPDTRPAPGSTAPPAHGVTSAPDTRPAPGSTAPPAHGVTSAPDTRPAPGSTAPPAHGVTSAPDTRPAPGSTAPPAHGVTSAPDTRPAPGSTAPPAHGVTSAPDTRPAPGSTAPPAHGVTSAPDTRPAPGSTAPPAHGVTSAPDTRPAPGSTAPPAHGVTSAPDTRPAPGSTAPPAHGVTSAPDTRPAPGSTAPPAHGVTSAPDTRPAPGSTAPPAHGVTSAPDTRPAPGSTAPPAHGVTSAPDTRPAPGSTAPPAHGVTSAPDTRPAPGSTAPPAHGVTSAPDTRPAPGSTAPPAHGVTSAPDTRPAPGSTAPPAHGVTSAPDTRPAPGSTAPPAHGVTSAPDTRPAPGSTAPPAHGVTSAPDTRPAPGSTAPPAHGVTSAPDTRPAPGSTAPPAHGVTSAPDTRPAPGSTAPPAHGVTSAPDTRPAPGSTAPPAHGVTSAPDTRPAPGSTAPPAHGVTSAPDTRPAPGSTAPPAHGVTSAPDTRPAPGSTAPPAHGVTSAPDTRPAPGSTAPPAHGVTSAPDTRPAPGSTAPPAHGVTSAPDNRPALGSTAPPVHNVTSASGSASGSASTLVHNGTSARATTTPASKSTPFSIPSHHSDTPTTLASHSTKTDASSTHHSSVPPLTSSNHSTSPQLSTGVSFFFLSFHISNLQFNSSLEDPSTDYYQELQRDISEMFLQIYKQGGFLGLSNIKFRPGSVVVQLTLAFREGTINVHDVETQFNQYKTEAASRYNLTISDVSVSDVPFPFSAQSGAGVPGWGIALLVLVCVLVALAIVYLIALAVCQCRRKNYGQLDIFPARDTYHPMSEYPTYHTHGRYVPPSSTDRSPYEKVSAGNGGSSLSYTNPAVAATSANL

How the values were obtained:
[1] = target: CXCR4, chemokine (C-X-C motif) receptor 4, wild type (UniProt P61073); test: co-IP; NCI-H292 cells transfected with wild-type CXCR4 (or siRNA-CXCR4), CXCL12 for 4 hours; lysis in 25 mM HEPES, 150 mM NaCl, 0.5% NP-40, 1 mM EDTA, 1 mM EGTA; IP with anti-total-MUC1 or anti-CXCR4 on Dynabeads Protein G at 4 °C, blot with anti-CXCR4 or anti-total-MUC1
[2] = target: MUC1 (endogenous, NCI-H292 cells) (human (endogenous in NCI-H292)) (UniProt P15941); test: as above

Row | binding [1] | binding [2] | Substance
1 | binds |  | MUC1 (endogenous, NCI-H292 cells) (from UniProt P15941 24-1255)
2 |  | binds | CXCR4, chemokine (C-X-C motif) receptor 4, wild type (from UniProt P61073 1-352)
